The values below come from the supplement of paper PMC4604168 (melanoma cell lines).

This is one part of the list. Many values rest on one well or one pass, so single values are uncertain.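 Cells were imaged in 1,536-well plates, and nuclei stained with an antibody against cleaved PARP were counted against all DNA-stained nuclei to give the apoptosis fraction. Screening doses were chosen to leave most cells alive, and resting and induced cleaved-PARP levels differ strongly between cell lines.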

The test system of the experiment is WM1716. Kind of experiment: cleaved PARP positive nuclei fraction relative to DMSO control; melanoma cells; higher = more apoptosis. Particulars: library dose: low library concentration; 72 h.
For the compound `Cn1cnc2c(F)c(Nc3ccc(Br)cc3Cl)c(C(=O)NOCCO)cc21` [selumetinib] + COc1ccc(-c2ccc3c(N4CCOCC4)nc(N4C[C@@H](C)O[C@@H](C)C4)nc3n2)cc1CO [KU0063794] (first compound 0.015 µM, partner dose 0.02 µM), the “cleaved PARP positive nuclei fraction” value turned out to be 20.2%.
With `CC1(C)CCC(c2ccc(Cl)cc2)=C(CN2CCN(c3ccc(C(=O)NS(=O)(=O)c4ccc(N[C@H](CCN5CCOCC5)CSc5ccccc5)c(S(=O)(=O)C(F)(F)F)c4)cc3)CC2)C1` + CN(NC(=O)CC(=O)NN(C)C(=S)c1ccccc1)C(=S)c1ccccc1 [STA4783] (first compound 0.4 µM, partner dose 0.006 µM), the “cleaved PARP positive nuclei fraction” value turned out to be 411%.
With `NC(=O)c1ccc(N(C(N)=O)c2c(F)cccc2F)nc1-c1ccc(F)cc1F` + C=CCNC1=C2C[C@@H](C)C[C@H](OC)[C@H](O)[C@@H](C)/C=C(\C)[C@H](OC(N)=O)[C@@H](OC)/C=C\C=C(/C)C(=O)NC(=CC1=O)C2=O [Tanespimycin] (first compound 0.4 µM, partner dose 0.002 µM) the figure was 78.5%; with `Cn1cnc2c(F)c(Nc3ccc(Br)cc3Cl)c(C(=O)NOCCO)cc21` [selumetinib] + Cn1c(Nc2ccc(C(F)(F)F)cc2)nc2cc(Oc3ccnc(-c4ncc(C(F)(F)F)[nH]4)c3)ccc21 [CHIR265] (first compound 0.015 µM, partner dose 0.08 µM), 85.6%.
With `NC(=O)c1ccc(N(C(N)=O)c2c(F)cccc2F)nc1-c1ccc(F)cc1F` + C[C@]1(c2nc3c(C(N)=O)cccc3[nH]2)CCCN1 [Veliparib] (first compound 0.4 µM, partner dose 1.4 µM), the “cleaved PARP positive nuclei fraction” value was 36.3%.
With `NC1(c2ccc(-c3nc4ccn5c(=O)[nH]nc5c4cc3-c3ccccc3)cc2)CCC1` + Cn1cc(/C=C2\C(=O)Nc3cccnc32)c2ccccc21 [GW441756] (first compound 0.4 µM, partner dose 0.4 µM) the figure was 110%; with `CN(c1ncccc1CNc1nc(Nc2ccc3c(c2)CC(=O)N3)ncc1C(F)(F)F)S(C)(=O)=O` + CCN(CC)CCCCNc1ncc2cc(-c3cc(OC)cc(OC)c3)c(NC(=O)NC(C)(C)C)nc2n1 [PD173074] (first compound 0.08 µM, partner dose 0.1 µM), 107%; with `CC1(C)CCC(c2ccc(Cl)cc2)=C(CN2CCN(c3ccc(C(=O)NS(=O)(=O)c4ccc(N[C@H](CCN5CCOCC5)CSc5ccccc5)c(S(=O)(=O)C(F)(F)F)c4)cc3)CC2)C1` + O=C(O)[C@@H]1[O][Sb](=[O])([O][Sb]2(=[O])[O][C@H]([C@H](O)CO)[C@H](O)[C@H](C(=O)O)[O]2)[O][C@H]([C@H](O)CO)[C@@H]1O [stibogluconate] (first compound 0.4 µM, partner dose 2 µM), 491%.
`CS(=O)(=O)c1ccc(C(=O)Nc2ccc(Cl)c(-c3ccccn3)c2)c(Cl)c1` [vismodegib] + C#Cc1cccc(Nc2ncnc3cc(OCCOC)c(OCCOC)cc23)c1 [erlotinib] (first compound 1 µM, partner dose 0.8 µM): the “cleaved PARP positive nuclei fraction” value stood at 1490%.
With `CN(c1ncccc1CNc1nc(Nc2ccc3c(c2)CC(=O)N3)ncc1C(F)(F)F)S(C)(=O)=O` + C#Cc1cccc(Nc2ncnc3cc(OCCOC)c(OCCOC)cc23)c1 [erlotinib] (first compound 0.08 µM, partner dose 0.8 µM) the figure was 57.1%; with `CC1(C)CCC(c2ccc(Cl)cc2)=C(CN2CCN(c3ccc(C(=O)NS(=O)(=O)c4ccc(N[C@H](CCN5CCOCC5)CSc5ccccc5)c(S(=O)(=O)C(F)(F)F)c4)cc3)CC2)C1` + O=C(O)c1ccc2c(c1)nc(Nc1cccc(Cl)c1)c1ccncc12 [CX4945] (first compound 0.4 µM, partner dose 0.4 µM), 898%.
The same measure for `COc1ccc(C2=N[C@@H](c3ccc(Cl)cc3)[C@@H](c3ccc(Cl)cc3)N2C(=O)N2CCNC(=O)C2)c(OC(C)C)c1` [Nutlin-3] + COc1cc2c(Oc3ccc4[nH]c(C)cc4c3F)ncnc2cc1OCCCN1CCCC1 [cediranib] (first compound 0.1 µM, partner dose 0.4 µM): 58.5%; for `CC(=O)O[C@@]12CO[C@@H]1C[C@H](O)[C@@]1(C)C(=O)[C@H](O)C3=C(C)[C@@H](OC(=O)[C@H](O)[C@@H](NC(=O)OC(C)(C)C)c4ccccc4)C[C@@](O)([C@@H](OC(=O)c4ccccc4)[C@H]21)C3(C)C` [Docetaxel] + Cn1c(Nc2ccc(C(F)(F)F)cc2)nc2cc(Oc3ccnc(-c4ncc(C(F)(F)F)[nH]4)c3)ccc21 [CHIR265] (first compound 0.0001 µM, partner dose 0.08 µM): 16200%.
